# Assay results from patent US10537607B2, “Treatment of autoimmune and/or inflammatory disease using novel caveolin modulators” (E&B TECHNOLOGIES LLC, priority 2013, dated 2020).
# Where “and” joins values, the source holds several entries; their conditions need not be identical. Identical values can stand only once. Entries after “also recorded” stand apart in the source; their conditions may differ. Part of at least one peptide drawing is inferred or uncertain, most often the ends. Residues, ends and D or L forms follow the SMILES beside them.
# System: VEGF-induced NO release (eNOS activity) in BAEC
# Assay: VEGF-induced NO release in cultured BAEC
# Assay type: cell-based, bovine
# Procedure: VEGF-induced NO release experiments were performed as previously described.
# […] Media was removed and fresh serum-free DMEM was added, with or without VEGF (10^−9 M) for 30 minutes. Media was collected, cells were trypsinized and counted, and nitrites levels in the supernatant were determined by using a Sievers NO chemiluminescence analyzer.
compound,measurement,setting,value
CC[C@H](C)[C@H](NC(=O)CNC(=O)[C@H](CC(=O)O)NC(=O)[C@H](CCCCN)NC(=O)[C@H](CCCCN)NC(=O)[C@H](Cc1c[nH]c2ccccc12)NC(=O)[C@H](CCCCN)NC(=O)[C@H](CCSC)NC(=O)[C@H](CCCNC(=N)N)NC(=O)[C@H](CCCNC(=N)N)NC(=O)[C@H](CC(N)=O)NC(=O)[C@H](CCC(N)=O)NC(=O)[C@H](Cc1ccccc1)NC(=O)[C@H](Cc1c[nH]c2ccccc12)NC(=O)[C@@H](NC(=O)[C@H](CCCCN)NC(=O)[C@@H](NC(=O)[C@H](CCC(N)=O)NC(=O)[C@@H](N)CCCNC(=N)N)[C@@H](C)CC)[C@@H](C)CC)C(=O)N[C@@H](Cc1c[nH]c2ccccc12)C(=O)N[C@@H](CCCCN)C(=O)N[C@@H](C)C(=O)N[C@@H](CO)C(=O)N[C@@H](Cc1ccccc1)C(=O)N[C@H](C(=O)N[C@H](C(=O)N[C@@H](Cc1ccccc1)C(=O)N[C@H](C(=O)N[C@H](C(=O)N[C@H](C(=O)N[C@@H](CCCCN)C(=O)N[C@@H](Cc1ccc(O)cc1)C(=O)N[C@@H](Cc1c[nH]c2ccccc12)C(=O)N[C@@H](Cc1ccccc1)C(=O)N[C@@H](Cc1ccc(O)cc1)C(=O)N[C@@H](CCCNC(=N)N)C(=O)O)[C@@H](C)O)C(C)C)[C@@H](C)O)[C@@H](C)O)[C@@H](C)O [AP-Cav] (H-RQIKIWFQNRRMKWKKDGIWKASFTTFTVTKYWFYR-OH; N-terminus and C-terminus assumed),time-dependent effect on VEGF-induced NO release,"10^−5 M, 4 h incubation",57%
same,time-dependent effect on VEGF-induced NO release,"10^−5 M, 6 h incubation",49%
same,EC50,"6 h pretreatment, dose response curves, non-linear regression, read-out: EC50 for inhibition of VEGF-induced NO release",1800 nM
same,fate of the inhibition of VEGF-induced NO release after pretreatment with either AP or Endo5,"construct 10^−5 M 6 h, AP or Endo5 5×10^−5 M",blocked; also recorded: prevented
same,maximum inhibition of VEGF-induced NO release,"peptide 2.5×10^−5 M, 6 h pretreatment",61%
same,inhibition of VEGF-induced NO release,"peptide 10^−5 M, 6 h pretreatment, VEGF 10^−9 M 30 min",48% and 52%
same,effect on basal (unstimulated) NO release,"six-hour pretreatment, 10^−5 M, NO-specific chemiluminescence",no significant effect
